No constants are given. Whether binding was seen depends on the method and setting. For some of these results: Binding seen in cells or lysates may run through a third protein. Some results given as binding are weak or reduced against the parent protein; the word gives no strength. For some of these results: Tags and fused reporters may be left off the sequences shown.
Key:
[1] = molecular target: endogenous DNMT1 (human (endogenous in HeLa, HEK293, HCT116)) (UniProt P26358); experiment: co-IP; co-immunoprecipitations of endogenous DNMT1 and PHF20L1a in HEK293 and HCT116 cells
[2] = molecular target: endogenous DNMT1 (human (endogenous in HeLa, HEK293, HCT116)) (UniProt P26358); experiment: co-IP; HeLa nuclear extracts (400 ug to 1 mg) precipitated with 5 ug anti-DNMT1 or anti-PHF20L1, rabbit IgG as control; also after 80 uM UNC1215 or ethanol for 3 days (lower levels of PHF20L1 with UNC1215)
[3] = molecular target: endogenous DNMT1K142me1 (DNMT1 monomethylated at lysine 142) (human (endogenous in Jurkat)) (UniProt P26358); experiment: SEC; gel filtration of Jurkat cell nuclear extract; fractions blotted for DNMT1, DNMT1K142me1 and PHF20L1a
[4] = molecular target: T1, biotin-tagged DNMT1K142me1 peptide (amino acids 132-150 of DNMT1 with monomethylated Lys-142); experiment: pull-down; 10 uM biotin peptide on agarose-streptavidin beads; 500 ng MBP-PHF20L1a with 0-200 uM UNC1215 for 1 h at 4 C; 10% glycerol, 0.1 mM DTT, 1 mM EDTA, 20 mM HEPES, 100 mM KCl; blot with anti-MBP-HRP; both purified
T1 sequence (peptide, monomethyl-lysine K(me1) at Lys-142; biotin, printed before the first residue): LSKPRTPRRSKSDGEAKPE

The chains behind the UniProt entries cited, without tags or fusion partners.
UniProt P26358: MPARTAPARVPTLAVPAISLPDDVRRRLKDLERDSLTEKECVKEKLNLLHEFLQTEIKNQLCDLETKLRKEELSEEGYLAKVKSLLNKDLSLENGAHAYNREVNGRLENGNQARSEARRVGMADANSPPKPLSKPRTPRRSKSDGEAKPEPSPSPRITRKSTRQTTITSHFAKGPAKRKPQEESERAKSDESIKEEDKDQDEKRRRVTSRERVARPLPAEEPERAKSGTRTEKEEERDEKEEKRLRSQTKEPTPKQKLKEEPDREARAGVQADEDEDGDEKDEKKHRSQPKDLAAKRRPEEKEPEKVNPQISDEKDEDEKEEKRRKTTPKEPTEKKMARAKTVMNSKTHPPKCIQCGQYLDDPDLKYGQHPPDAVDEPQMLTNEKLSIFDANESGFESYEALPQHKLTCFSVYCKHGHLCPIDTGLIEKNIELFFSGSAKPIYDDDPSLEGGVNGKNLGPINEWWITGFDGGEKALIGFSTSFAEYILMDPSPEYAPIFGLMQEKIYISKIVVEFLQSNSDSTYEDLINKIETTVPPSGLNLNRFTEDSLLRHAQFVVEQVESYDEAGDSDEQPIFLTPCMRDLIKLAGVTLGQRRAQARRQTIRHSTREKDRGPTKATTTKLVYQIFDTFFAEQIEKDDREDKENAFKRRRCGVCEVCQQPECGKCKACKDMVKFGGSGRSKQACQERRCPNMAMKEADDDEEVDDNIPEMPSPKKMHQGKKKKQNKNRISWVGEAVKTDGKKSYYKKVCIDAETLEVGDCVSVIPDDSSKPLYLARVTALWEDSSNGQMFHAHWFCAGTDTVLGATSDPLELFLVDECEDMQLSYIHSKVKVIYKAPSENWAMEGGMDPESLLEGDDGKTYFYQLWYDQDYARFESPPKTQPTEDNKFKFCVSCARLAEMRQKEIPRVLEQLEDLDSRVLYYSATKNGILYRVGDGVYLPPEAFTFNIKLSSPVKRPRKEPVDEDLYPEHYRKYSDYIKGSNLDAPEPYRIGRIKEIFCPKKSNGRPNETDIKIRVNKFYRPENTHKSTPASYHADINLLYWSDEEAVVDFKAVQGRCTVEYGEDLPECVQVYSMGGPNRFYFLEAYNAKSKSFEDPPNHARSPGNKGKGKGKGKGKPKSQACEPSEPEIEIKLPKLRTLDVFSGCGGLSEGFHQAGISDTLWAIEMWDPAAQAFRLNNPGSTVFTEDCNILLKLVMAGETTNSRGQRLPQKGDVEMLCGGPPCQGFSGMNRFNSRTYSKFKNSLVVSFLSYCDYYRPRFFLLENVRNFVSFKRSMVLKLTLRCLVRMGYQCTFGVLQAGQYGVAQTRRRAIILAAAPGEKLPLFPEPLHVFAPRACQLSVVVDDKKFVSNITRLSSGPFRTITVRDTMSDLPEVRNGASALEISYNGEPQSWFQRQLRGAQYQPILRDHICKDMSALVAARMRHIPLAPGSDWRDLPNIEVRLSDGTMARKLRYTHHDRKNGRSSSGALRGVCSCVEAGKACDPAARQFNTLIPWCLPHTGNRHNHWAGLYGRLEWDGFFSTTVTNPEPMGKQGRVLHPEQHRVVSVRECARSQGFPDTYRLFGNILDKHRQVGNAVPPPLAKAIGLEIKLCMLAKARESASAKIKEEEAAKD

B1: endogenous PHF20L1a (natural protein, UniProt A8MW92 1-1017, looked up)
chain: MSKKPPNRPGITFEIGARLEALDYLQKWYPSRIEKIDYEEGKMLVHFERWSHRYDEWIYWDSNRLRPLERPALRKEGLKDEEDFFDFKAGEEVLARWTDCRYYPAKIEAINKEGTFTVQFYDGVIRCLKRMHIKAMPEDAKGQVKSQHPLSWCCPIDPAGSCNQSMGSEDWIALVKAAAAAAAKNKTGSKPRTSANSNKDKDKDERKWFKVPSKKEETSTCIATPDVEKKEDLPTSSETFGLHVENVPKMVFPQPESTLSNKRKNNQGNSFQAKRARLNKITGLLASKAVGVDGAEKKEDYNETAPMLEQAISPKPQSQKKNEADISSSANTQKPALLSSTLSSGKARSKKCKHESGDSSGCIKPPKSPLSPELIQVEDLTLVSQLSSSVINKTSPPQPVNPPRPFKHSERRRRSQRLATLPMPDDSVEKVSSPSPATDGKVFSISSQNQQESSVPEVPDVAHLPLEKLGPCLPLDLSRGSEVTAPVASDSSYRNECPRAEKEDTQMLPNPSSKAIADGRGAPAAAGISKTEKKVKLEDKSSTAFGKRKEKDKERREKRDKDHYRPKQKKKKKKKKKSKQHDYSDYEDSSLEFLERCSSPLTRSSGSSLASRSMFTEKTTTYQYPRAILSVDLSGENLSDVDFLDDSSTESLLLSGDEYNQDFDSTNFEESQDEDDALNEIVRCICEMDEENGFMIQCEECLCWQHSVCMGLLEESIPEQYICYICRDPPGQRWSAKYRYDKEWLNNGRMCGLSFFKENYSHLNAKKIVSTHHLLADVYGVTEVLHGLQLKIGILKNKHHPDLHLWACSGKRKDQDQIIAGVEKKIAQDTVNREEKKYVQNHKEPPRLPLKMEGTYITSEHSYQKPQSFGQDCKSLADPGSSDDDDVSSLEEEQEFHMRSKNSLQYSAKEHGMPEKNPAEGNTVFVYNDKKGTEDPGDSHLQWQLNLLTHIENVQNEVTSRMDLIEKEVDVLESWLDFTGELEPPDPLARLPQLKRHIKQLLIDMGKVQQIATLCSV
B1 was tested, and the binding [1] was “binds”, the binding [2] was “binds” and the binding [3] was “binds”.

B2: MBP-PHF20L1 full-length fusion protein (isoform a) (protein, UniProt A8MW92 1-1017)
chain: MSKKPPNRPGITFEIGARLEALDYLQKWYPSRIEKIDYEEGKMLVHFERWSHRYDEWIYWDSNRLRPLERPALRKEGLKDEEDFFDFKAGEEVLARWTDCRYYPAKIEAINKEGTFTVQFYDGVIRCLKRMHIKAMPEDAKGQVKSQHPLSWCCPIDPAGSCNQSMGSEDWIALVKAAAAAAAKNKTGSKPRTSANSNKDKDKDERKWFKVPSKKEETSTCIATPDVEKKEDLPTSSETFGLHVENVPKMVFPQPESTLSNKRKNNQGNSFQAKRARLNKITGLLASKAVGVDGAEKKEDYNETAPMLEQAISPKPQSQKKNEADISSSANTQKPALLSSTLSSGKARSKKCKHESGDSSGCIKPPKSPLSPELIQVEDLTLVSQLSSSVINKTSPPQPVNPPRPFKHSERRRRSQRLATLPMPDDSVEKVSSPSPATDGKVFSISSQNQQESSVPEVPDVAHLPLEKLGPCLPLDLSRGSEVTAPVASDSSYRNECPRAEKEDTQMLPNPSSKAIADGRGAPAAAGISKTEKKVKLEDKSSTAFGKRKEKDKERREKRDKDHYRPKQKKKKKKKKKSKQHDYSDYEDSSLEFLERCSSPLTRSSGSSLASRSMFTEKTTTYQYPRAILSVDLSGENLSDVDFLDDSSTESLLLSGDEYNQDFDSTNFEESQDEDDALNEIVRCICEMDEENGFMIQCEECLCWQHSVCMGLLEESIPEQYICYICRDPPGQRWSAKYRYDKEWLNNGRMCGLSFFKENYSHLNAKKIVSTHHLLADVYGVTEVLHGLQLKIGILKNKHHPDLHLWACSGKRKDQDQIIAGVEKKIAQDTVNREEKKYVQNHKEPPRLPLKMEGTYITSEHSYQKPQSFGQDCKSLADPGSSDDDDVSSLEEEQEFHMRSKNSLQYSAKEHGMPEKNPAEGNTVFVYNDKKGTEDPGDSHLQWQLNLLTHIENVQNEVTSRMDLIEKEVDVLESWLDFTGELEPPDPLARLPQLKRHIKQLLIDMGKVQQIATLCSV
In the case of B2, the binding [4] is reported as “binds”.
